Assay results: patent US12157713B2, “Conjugated oligoelectrolytes as antimicrobial agents” (Nanyang Technological University, priority 2018, dated 2024)

Tested on: human erythrocytes
Experiment: Haemolysis assay
Type: cell-based
Details: MIC against S. aureus 25923
Description: 1 mL of mammalian blood, collected from a healthy donor, was mixed with 9 mL of PBS and centrifuged at 1,000 rpm for 5 min. Red blood cell pellet was collected and subsequently washed with PBS three times and diluted to a final concentration of 5% v/v. The various COEs were dissolved in PBS and two folds serial diluted in a 96-well microplate. 50 μL of red blood cell stock was mixed with 50 μL of COE solution in each well and incubated for 1 hr at 37° C. under shaking. The microplate was centrifuged at 1,000 rpm for 10 min. 80 μL aliquots of the supernatant were then transferred to a new 96-well microplate and diluted with another 80 μL of PBS. Haemolytic activity was calculated by measuring absorbance at 540 nm using a 96-well plate spectrophotometer. Triton X-100 (0.1% in PBS), which is able to lyse red blood cells, completely was used as positive control, while PBS was used as negative control. The haemolysis percentage was calculated using the following formula:
[formula] where Op is the absorbance of the COE-treated sample, Ob is the absorbance of negative control and Ot is the absorbance of positive control. Results and Discussions
The selectivity of COEs towards bacteria or mammalian cells can be quantified using the ratio between the concentrations leading to 50% lysis of human erythrocytes (HC50) and the MIC value.

## CN(C)CC[N+](C)(C)CCCCCCOc1ccc(/C=C/c2ccc(OCCCCCC[N+](C)(C)CCN(C)C)cc2)cc1 [COE-D62N]
  HC50/MIC (S. aureus) ratio: >32768
